Counter-ions that a name gives are not always drawn. Like-named read-outs stand apart in the source and are kept apart here. Among all 3,300 compounds or so, about 60 (2%) showed an effect of 50% or more. Some of the results follow.
System: HCoV-OC43
Parameters: species or system RD; HTS, protection from HCoV-OC43 induced cell death, luminescent cell viability (CellCounting-Lite 2.0), inhibition rate
Settings: 24 h post infection, 1 h compound pre-incubation, 10 µM, inhibitor

Row | SMILES | OC43 Inhibition rate (OC43 Inhibition rate, 24 h) [%] | OC43 Inhibition rate [%]
1 | CN1CCC=C(C(=O)O)C1 [Arecaidine (hydrochloride)] | -0.1 | –
2 | COc1cc(C[C@H](C)[C@H](C)Cc2ccc3c(c2)OCO3)ccc1O [Macelignan] | – | 2
3 | COC(=O)C1=CO[C@@H](O[C@@H]2O[C@H](CO)[C@@H](O)[C@H](O)[C@H]2O)[C@@H]2C(CO)=C[C@H](O)[C@H]12 [Methyl deacetylasperulosidate] | – | -2.3
4 | N[C@@H](CS)C(=O)O [L-Cysteine] | 0.9 | –
5 | O=C(O)/C=C/c1ccccc1 [Cinnamic acid] | 1.6 | –
6 | COc1cccc(-c2oc3ccccc3c(=O)c2O)c1 [3'-Methoxyflavonol] | – | -2
7 | C[C@@H]1O[C@@H](Oc2c(-c3cc(O)c(O)c(O)c3)oc3cc(O)cc(O)c3c2=O)[C@H](O)[C@H](O)[C@H]1O [Myricitrin] | – | 0.2
8 | C[C@@]12CCc3occc3[C@H]1CC[C@@]13C[C@@H](CC[C@H]12)[C@@](O)(CO)C3 [Cafestol] | – | -1.3
9 | NC(=O)CC[C@@H](N)C(=O)O [D-Glutamine] | – | 2.8
10 | CC(=O)OC[C@H]1O[C@@H](OC(C)=O)[C@H](OC(C)=O)[C@@H](OC(C)=O)[C@@H]1OC(C)=O [β-D-Glucose pentaacetate] | – | 0.3
11 | C[C@@H]1CC[C@@]2(OC1)O[C@H]1C[C@H]3[C@@H]4CC=C5C[C@@H](O)C[C@@H](O[C@@H]6O[C@H](C)[C@H](O)[C@H](O[C@@H]7OC[C@@H](O)[C@H](O)[C@H]7O)[C@H]6O[C@@H]6O[C@@H](C)[C@H](O)[C@@H](O)[C@H]6O)[C@]5(C)[C@H]4CC[C@]3(C)[C@H]1[C@@H]2C [Ophiopogonin D] | 1.6 | –
12 | CCCCCCC(CCCCCCCCCC(=O)O)C(=O)OCC(O)CO (stereo not drawn) [Caprylic/Capric Triglyceride] | – | -0.4
13 | COc1ccc([C@@H](O)CNC(=O)/C=C/c2ccccc2)cc1 (racemic) [Aegeline] | – | 0.3
14 | COC1[C@@H](O)[C@H](O)C(O)[C@H](O)[C@H]1O (stereo partly drawn) [Sequoyitol] | – | 0.1
15 | O=C1C[C@@H](c2ccc(O)c(O)c2)Oc2cc(O[C@@H]3O[C@H](CO)[C@@H](O)[C@H](O)[C@H]3O)cc(O)c21 [Eriodictyol-7-O-glucoside] | – | 0.3
16 | C[N+](C)(C)C[C@H](O)CC(=O)[O-] [L-Carnitine] | 2.9 | –
17 | COc1cc(CCC(=O)CC(=O)CCc2ccc(O)c(OC)c2)ccc1O [Tetrahydrocurcumin] | – | 3.5
18 | COc1cc(C(=O)O)cc(OC)c1O [Syringic acid] | – | -0.1

Structures listed so far containing a carbonyl joined to an NH by a bond outside any ring:
Row | SMILES | OC43 Inhibition rate (OC43 Inhibition rate, 24 h) [%] | OC43 Inhibition rate [%]
9 | NC(=O)CC[C@@H](N)C(=O)O [D-Glutamine] | – | 2.8
13 | COc1ccc([C@@H](O)CNC(=O)/C=C/c2ccccc2)cc1 (racemic) [Aegeline] | – | 0.3
